Measurements from the supplement of paper PMC8256030.
Values joined by “and” are separate entries in the source; they are usually repeats but may differ in a detail not shown here. Identical values can stand only once. Counter-ions that a name gives are not always drawn. The list shows a part of the results. Repeats in this data set agree poorly, so a single value says little.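 HEK293T cells were given each compound shortly before transfection with a reporter in which red mCherry is followed by the SARS-CoV-2 frameshift element and then GFP in the −1 frame, so GFP appears only after frameshifting.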

Tested on: HEK293T
Assay: percent viability (nuclei count) relative to control; higher = more viable cells
Settings: 10 µM; 24 h

SMILES	percent viability
Oc1ccc(O)cc1	127%
COc1cc(C(=O)OCCCN2CCCN(CCCOC(=O)c3cc(OC)c(OC)c(OC)c3)CC2)cc(OC)c1OC [dilazep]	154%
CC(C)C1O[C@H](CN)[C@@H](CN)O1.O=C([O-])CC(=O)[O-].[Pt+2] [eptaplatin]	250%
CCN[C@H]1C[C@H](C)S(=O)(=O)c2sc(S(N)(=O)=O)cc21 [dorzolamide]	250%
CC(=O)Oc1ccc(C(c2ccc(OC(C)=O)cc2)c2ccccn2)cc1 [bisacodyl]	190% and 183%
COc1ccc(C(=C(c2ccccc2)[N+](=O)[O-])c2ccc(OCCN3CCCC3)cc2)cc1 [nitromifene]	437%
Cc1nc2ccccc2n1Cc1ccc(Cl)cc1 [chlormidazole]	58.4%
CNC(=O)[C@@H](NC(=O)[C@H](CC(C)C)[C@H](O)C(=O)NO)C(C)(C)C [Marimastat]	199%
NS(=O)(=O)c1cc2c(cc1C(F)(F)F)NCNS2(=O)=O [hydroflumethiazide]	124%
C[C@@H](O)CCCCn1c(=O)c2c(ncn2C)n(C)c1=O [lisofylline]	208%
CCCCC[C@](C)(O)/C=C/[C@@H]1[C@@H](C/C=C\CCCC(=O)O)[C@@H](O)C[C@H]1O [Carboprost Tromethamine]	190%
N[C@@H](Cc1ccc(O)cc1)C(=O)O [tyrosine]	301%
CC(C)OC(=O)CCC/C=C\C[C@@H]1[C@@H](/C=C/C(F)(F)COc2ccccc2)[C@H](O)C[C@@H]1O [tafluprost]	94.7%
O=C1[C@H](CC[C@H](O)c2ccc(F)cc2)[C@@H](c2ccc(O)cc2)N1c1ccc(F)cc1 [ezetimibe]	162%
Nc1nc(=O)c(Br)c(-c2ccccc2)[nH]1 [bropirimine]	239%
c1ccc(C(O[C@@H]2CCCN(CCc3ccc4c(c3)OCO4)C2)c2ccccc2)cc1 [zamifenacin]	148%
CCCCN1CCCCC1C(=O)Nc1c(C)cccc1C (stereo not given) [bupivacaine]	275% and 213%
O=C(O)c1ccccc1-c1c2ccc(=O)cc-2oc2cc(O)ccc12	335%
Cc1cn[nH]c1 [fomepizole]	256% and 184%
CC1=C(/C=C/C(C)=C/C=C/C(C)=C/CO)C(C)(C)CCC1 [retinol]	168%

SMILES	percent viability
CO/N=C1\CN(c2nc3c(cc2F)c(=O)c(C(=O)O)cn3C2CC2)CC1CN (stereo not given) [gemifloxacin]	295% and 202%
Nc1nc(/C(=C/CC(=O)O)C(=O)N[C@@H]2C(=O)N3C(C(=O)O)=CCS[C@H]23)cs1 [Cedax]	279%
CC(C)C[C@H](NC(=O)[C@H](Cc1ccccc1)NC(=O)c1cnccn1)B(O)O [Bortezomib]	87.4%
N#Cc1ccc2[nH]cc(CCCCN3CCN(c4ccc5oc(C(N)=O)cc5c4)CC3)c2c1	383%
O=C(Nc1ccccc1)c1ccccc1O	393%
CCCc1nc(C)c2c(=O)nc(-c3cc(S(=O)(=O)N4CCN(CC)CC4)ccc3OCC)[nH]n12 [vardenafil]	238%
C[C@H](N[C@@H](CCc1ccccc1)C(=O)O)C(=O)N1Cc2ccccc2C[C@H]1C(=O)O [quinaprilat]	141%
CC1=C(C(=O)OC(C)C)C(c2cccc([N+](=O)[O-])c2)C(C(=O)OC2CN(C(c3ccccc3)c3ccccc3)C2)=C(N)N1 (stereo not given) [azelnidipine]	57.6%
CC(=O)/N=c1/sc(S(N)(=O)=O)nn1C [methazolamide]	139%
CCN(CC)CCOCCOC(=O)C(CC)(CC)c1ccccc1 [oxeladin]	193%
S=C=Nc1ccc(N=C=S)cc1 [bitoscanate]	254%
Cc1cncc(CN2CCC(=C3c4ccc(Cl)cc4CCc4cccnc43)CC2)c1 [rupatadine]	227%
CO[C@H]1C[C@H](O[C@H]2[C@H](C)[C@@H](O[C@@H]3O[C@H](C)C[C@H](N(C)C)[C@H]3O)[C@@H](C)C[C@@]3(CO3)C(=O)[C@H](C)[C@@H](O)[C@@H](C)[C@@H](C)OC(=O)[C@@H]2C)O[C@@H](C)[C@@H]1O	98.9%
NS(=O)(=O)c1cc2c(cc1Cl)CN(C1CCCCC1)C2=O [clorexolone]	56%
C=CCc1ccccc1OCC(O)CNC(C)C (stereo not given) [Alprenolol·HCl]	176%
c1cc(CNCc2ccncc2)ccn1 [gapicomine]	119%
O=c1[nH]c(=O)n([C@H]2C[C@H](O)[C@@H](CO)O2)cc1I [idoxuridine]	220% and 215%
Nc1ccc(S(=O)(=O)Nc2ncccn2)cc1 [sulfadiazine]	171% and 169%
C[C@@H](c1ncncc1F)[C@](O)(Cn1cncn1)c1ccc(F)cc1F [voriconazole]	120%
NC[C@H](O)c1ccc(O)c(O)c1	284%
